Reference: patent US11104648B2, “Pyrazole derivative” (Zhejiang Research Institute of Chemical Industry Co., Ltd., priority 2018, dated 2021)
Some of these results come from one statement about several compounds together.

Key:
Type in all cases: in vivo
[1] = system: Eggs of Tetranychus Cinnabarinus; assay: Activity assay of eggs of Tetranychus cinnabarinus (spray method, ovicidal); details: concentration 5 mg/L, non-incubated eggs counted as dead
In short: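 Ovicidal spray test: compound dissolved in DMF, diluted with 1‰ Tween 80 (DMF ≤10%), sprayed on eggs laid during 24 h by females on broad bean leaves. Culture at 26±2° C, 70–80% RH, 16 h photoperiod; non-hatched eggs scored as dead when blank control hatched; three repeats.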

[2] = system: adult Tetranychus cinnabarinus; assay: Activity assay of adult Tetranychus cinnabarinus (whole-plant spray on bean seedlings); details: concentration 2.5 mg/L; 48 h
In short: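 Whole plants sprayed after adult mite inoculation and initial census, using compound dissolved in DMF and made up with 1‰ Tween 80 water (DMF not above 10%). Mortality derived from survivor counts at 48 h after treatment. Each treatment run in triplicate.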

[3] = system: Tetranychus cinnabarinus Nymphs; assay: Activity assay of Tetranychus cinnabarinus nymphs (spray on broad bean leaves); details: concentration 2.5 mg/L; 48 h
In short: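 Mortality, judged as no response to gentle touch, was scored 48 h after spraying Tetranychus cinnabarinus nymphs on broad bean leaves (eggs from females removed after 24 h). Test solutions: DMF-dissolved compound, ≤10% DMF, in 1‰ Tween 80; 26±2° C., 70%–80% RH, 16 h light; triplicate, blank control.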

SMILES | ovicidal activity [1] | adult mite-killing activity [2] | nymph-killing activity [3]
Cc1nn(C)c(/C(OCOC(=O)OCCC(C)C)=C(\C#N)c2ccc(C(C)(C)C)cc2)c1Cl [Compound 650] | ≥ 90% | ≥ 90% | ≥ 95%
COC(=O)OCO/C(=C(/C#N)c1ccc(C(C)(C)C)cc1)c1c(Cl)c(C)nn1C [Compound 643] | ≥ 90% | ≥ 90% | ≥ 95%
COC(=O)CSC(=O)OCO/C(=C(/C#N)c1ccc(C(C)(C)C)cc1)c1c(Cl)c(C)nn1C [Compound 673] | ≥ 90% | ≥ 90% | ≥ 95%
CCn1nc(C)c(Cl)c1/C(OC(C)OC(=O)OC(C)C)=C(\C#N)c1ccc(C(C)(C)C)cc1 (racemic) [Compound 774] | ≥ 90% | ≥ 90% | ≥ 95%
Cc1cc(/C(OC(C)OC(=O)CCCl)=C(\C#N)c2ccc(C(C)(C)C)cc2)n(C)n1 (racemic) [Compound 48] | ≥ 90% | ≥ 90% | ≥ 95%
CCOC(=O)COC(=O)OC(C)O/C(=C(/C#N)c1ccc(C(C)(C)C)cc1)c1c(C)c(C)nn1C (racemic) [Compound 894] | ≥ 90% | ≥ 90% | ≥ 95%
CCn1nc(C)c(Cl)c1/C(OCOC(=O)SCC(=O)OC)=C(\C#N)c1ccc(C(C)(C)C)cc1 [Compound 769] | ≥ 90% | ≥ 90% | ≥ 95%
Cc1nn(C)c(/C(OC(C)OC(=O)OCC(F)(F)F)=C(\C#N)c2ccc(C(C)(C)C)cc2)c1C (racemic) [Compound 883] | ≥ 90% | ≥ 90% | ≥ 95%
C#CCOC(=O)OC(C)O/C(=C(/C#N)c1ccc(C(C)(C)C)cc1)c1c(C)c(C)nn1C (racemic) [Compound 892] | ≥ 90% | ≥ 90% | ≥ 95%
CCn1nc(C)c(Cl)c1/C(OCOC(=O)OCC(F)(F)F)=C(\C#N)c1ccc(C(C)(C)C)cc1 [Compound 755] | ≥ 90% | ≥ 90% | ≥ 95%
CCCCOC(=O)OCO/C(=C(/C#N)c1ccc(C(C)(C)C)cc1)c1c(C)c(C)nn1C [Compound 840] | ≥ 90% | ≥ 90% | ≥ 95%
Cc1nn(C)c(/C(OC(C)OC(=O)OCC(C)C)=C(\C#N)c2ccc(C(C)(C)C)cc2)c1C (racemic) [Compound 873] | ≥ 90% | ≥ 90% | ≥ 95%
CCn1nc(C)c(C)c1/C(OC(C)OC(=O)OC(C)C)=C(\C#N)c1ccc(C(C)(C)C)cc1 (stereo not drawn) [Compound 966] | ≥ 90% | ≥ 90% | ≥ 95%
COCCOC(=O)OC(C)O/C(=C(/C#N)c1ccc(C(C)(C)C)cc1)c1c(C)c(C)nn1C (racemic) [Compound 884] | ≥ 90% | ≥ 90% | ≥ 95%
CCCCCOC(=O)OCO/C(=C(/C#N)c1ccc(C(C)(C)C)cc1)c1c(C)c(C)nn1C [Compound 844] | ≥ 90% | ≥ 90% | ≥ 95%
Cc1nn(C)c(/C(OCOC(=O)OCCC(C)C)=C(\C#N)c2ccc(C(C)(C)C)cc2)c1C [Compound 842] | ≥ 90% | ≥ 90% | ≥ 95%
